Data as given in article doi:10.1101/2025.07.22.666084.
These are yes or no findings as the source states them, for the method shown. Binding seen in cells or lysates may run through a third protein. Some binding calls cover weakened binding; strength is not graded here.

By UniProt entry, the sequences of proteins in these tests, tags left out.
UniProt P19338: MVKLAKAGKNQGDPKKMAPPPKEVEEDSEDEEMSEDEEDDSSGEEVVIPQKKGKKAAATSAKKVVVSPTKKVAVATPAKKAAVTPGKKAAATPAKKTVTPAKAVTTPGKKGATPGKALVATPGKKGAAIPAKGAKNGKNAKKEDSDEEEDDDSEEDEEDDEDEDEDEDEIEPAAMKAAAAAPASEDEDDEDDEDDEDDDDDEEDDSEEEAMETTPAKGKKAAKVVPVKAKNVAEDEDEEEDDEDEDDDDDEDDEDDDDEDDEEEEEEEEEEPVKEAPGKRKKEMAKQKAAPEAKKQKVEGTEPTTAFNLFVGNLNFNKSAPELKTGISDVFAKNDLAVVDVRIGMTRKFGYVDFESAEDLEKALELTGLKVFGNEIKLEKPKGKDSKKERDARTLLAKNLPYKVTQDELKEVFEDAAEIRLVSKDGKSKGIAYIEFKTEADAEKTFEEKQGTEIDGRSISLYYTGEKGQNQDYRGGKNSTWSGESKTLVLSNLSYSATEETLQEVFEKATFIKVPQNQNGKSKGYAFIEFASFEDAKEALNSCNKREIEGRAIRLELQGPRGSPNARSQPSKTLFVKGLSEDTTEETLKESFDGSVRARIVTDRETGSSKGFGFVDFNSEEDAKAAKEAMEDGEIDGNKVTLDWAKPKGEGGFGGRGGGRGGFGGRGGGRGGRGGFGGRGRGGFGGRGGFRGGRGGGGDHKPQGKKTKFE
UniProt Q00987: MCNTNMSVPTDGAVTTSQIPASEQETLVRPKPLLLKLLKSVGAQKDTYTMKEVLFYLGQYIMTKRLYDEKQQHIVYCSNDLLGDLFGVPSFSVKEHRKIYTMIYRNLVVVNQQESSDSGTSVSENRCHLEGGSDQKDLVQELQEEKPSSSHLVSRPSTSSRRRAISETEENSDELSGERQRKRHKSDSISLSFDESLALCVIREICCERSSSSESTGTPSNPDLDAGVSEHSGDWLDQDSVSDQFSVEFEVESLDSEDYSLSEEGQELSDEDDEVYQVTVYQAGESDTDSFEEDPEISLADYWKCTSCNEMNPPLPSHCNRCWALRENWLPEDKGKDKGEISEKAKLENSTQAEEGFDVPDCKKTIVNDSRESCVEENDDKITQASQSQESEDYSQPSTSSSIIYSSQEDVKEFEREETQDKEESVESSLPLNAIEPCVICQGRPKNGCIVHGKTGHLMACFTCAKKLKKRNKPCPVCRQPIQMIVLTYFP

Biological target: nucleolin (NCL) (human (endogenous in U87MG)) (UniProt P19338)
Experiment: co-IP

Substance: Murine double minute 2 (MDM2) (from UniProt Q00987 1-491) (enzyme)
- binding: binds
